From PubChem BioAssay AID2685 (National Center for Advancing Translational Sciences (NCATS), 2010)
Some of the results follow. The main result of the screen is listed elsewhere. These columns were measured beside it and carry no call. The list favours compounds with an active or inconclusive main result. The note in brackets gives the kind of curve behind each potency; many fits are weak.

Experiment: qHTS Assay for Lipid Storage Modulators in Drosophila S3 Cells;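 on cell number change: cells counted by Cell Tracker Red CMTPX staining in the red channel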
Conditions: BODIPY lipid droplet fluorescence, 18-24 h; for cell number change: measured here: cell count max response, cells fed with added oleic acid
Outline: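 Drosophila S3 cells got compounds at several concentrations plus oleic acid (400 uM solution). Laser-scanning cytometry with 488 nm excitation read lipid droplets at 500-530 nm and cells at 575-640 nm. Percent activity was relative to 20 uM Triacsin C.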

[1] = measured here: lipid fluorescence (Fed channel) AC50, cells fed with added oleic acid
[2] = measured here: cell number channel AC50, cells fed with added oleic acid

| Structure (SMILES) | cell number change [%] | AC50 [1] | AC50 [2] |
| --- | --- | --- | --- |
| Cc1sc2nc(CSc3n[nH]c(N)n3)[nH]c(=O)c2c1C | 13.4 | – | – |
| COc1ccc(CN2CCN(C(=O)CCC(=O)Nc3nnc(C4CCCCC4)s3)CC2)cc1F | -4.42 | 29.1 µM [falling, single point] | – |
| O=C(Nc1nnc(C2CC2)s1)c1ccc(Cl)nc1 | 37.9 | – | 25.9 µM [rising, single point] |
| CCOC(=O)c1ccc(NC(=O)CSC2=NN3CCCC(=O)N=C3S2)cc1 | 33.1 | 23.1 µM [rising, partial curve] | 0.058 µM [rising, full curve, poor fit] |
| Cc1nn(Cc2ccccc2)c(Cl)c1C(=O)NCc1ccco1 | 24.8 | 6.51 µM [rising, single point] | 6.51 µM [rising, single point] |
| COc1ccc(-c2nc(C#N)c(N3CCOCC3)o2)cc1OC | -15.9 | 6.51 µM [rising, single point] | – |
| C=CCCCCCCCCC(=O)NN | -78 | 0.651 µM [falling, single point] | 20.6 µM [falling, partial curve] |
| COCCNc1nc(SC)nc2sc3c(c12)CCN(C)C3 | -26.1 | – | – |
| O=C(Nc1cc(C(=O)Nc2ccccc2C(=O)O)cc(C(=O)Nc2ccccc2C(=O)O)c1)c1ccccc1 | 15.1 | 29.1 µM [rising, single point] | – |
| C/C(=N\O)c1sc(-c2ccccc2)nc1C | 7.4 | 0.731 µM [rising, partial curve, poor fit] | – |
| CCNC(=O)c1c(NC(=O)c2cc(-c3cc(C)ccc3O)n[nH]2)sc2c1CCCC2 | 19.6 | 0.517 µM [rising, full curve, poor fit] | – |
| Cc1ccc(CNC(=O)c2cccc(S(C)(=O)=O)c2)cc1 | -10.8 | – | – |
| Cc1c(CC(=O)Nc2ccc(Cl)cc2)sc2ccc(Cl)cc12 | -27.6 | 29.1 µM [falling, single point] | – |
| CCOc1ccc(C(=O)NCCC(=O)N2CCC3(CC2)NCCc2[nH]cnc23)cc1 | – | – | 0.259 µM [rising, full curve, poor fit] |
| CCOC(=O)c1ccc(Oc2nc(SC)nc(N(C)C)n2)cc1 | 1.56 | 20.6 µM [rising, single point] | – |
| Cc1ccc(CN2CCN(Cc3nc4ccccc4nc3C)CC2CCO)cc1 (stereo not drawn) | 28.1 | 7.31 µM [rising, partial curve] | – |
| O=C(CS)Nc1ccc2ccccc2c1 | -33 | 3.66 µM [falling, full curve, poor fit] | 23.1 µM [falling, single point] |
| CCOC(=O)[C@H]1[C@H]2COc3ccccc3[C@@H]2N2C(=O)CNC(=O)[C@@]12C | 6.88 | 0.651 µM [falling, single point] | 0.651 µM [falling, single point] |
| C=CCN1C(=O)c2ccc(C(=O)N3CCN(S(=O)(=O)c4cccc(F)c4)CC3)cc2C1=O | 27 | – | – |
| Cc1ccc(C(C(=O)NC2CCCCC2)N(Cc2cccnc2)C(=O)C2COc3ccccc3O2)o1 (stereo not drawn) | -10.3 | 1.3 µM [rising, partial curve] | – |
| CC(=O)c1sc(NC(=O)COc2ccc(C)c(C)c2)nc1C | 33.2 | – | 10.3 µM [rising, partial curve] |

| Structure (SMILES) | cell number change [%] | AC50 [1] | AC50 [2] |
| --- | --- | --- | --- |
| Cc1[nH]nc2c1C(c1cccc(O)c1)C1=C(CC(C)(C)CC1=O)N2 (stereo not drawn) | -1.76 | 32.6 µM [rising, single point] | – |
| CN(C(=O)Cn1nc(Cl)ccc1=O)C1CCCN(Cc2ccccc2F)C1 (stereo not drawn) | -23 | 1.84 µM [falling, partial curve, poor fit] | – |
| O=C(/C=C/c1ccc(-c2cccc([N+](=O)[O-])c2)o1)N1CCOCC1 | 27.5 | 6.51 µM [rising, single point] | 6.51 µM [rising, single point] |
| CCOC(=O)Cn1c(=NC(=O)CSC(C)=O)sc2cc(F)ccc21 | – | 16.4 µM [rising, single point] | – |
| Cc1ccc(NC(=O)c2cnn(-c3ccccc3)c2C)cc1 | -16.4 | – | – |
| CCOc1ccc2c3c(c(=O)oc2c1OCC)CCCC3 | -16.9 | – | – |
| Cc1nc(-c2ccc(S(=O)(=O)N3CCN(C(c4ccccc4)c4ccccc4)CC3)s2)cs1 | – | – | 6.51 µM [rising, single point] |
| COc1cc2sc(C)nc2cc1C | 22.4 | – | 0.00461 µM [rising, full curve, poor fit] |
| CCOCCCn1c(SCC(=O)Nc2ccccc2OC)nc2ccccc2c1=O | -31.5 | 6.51 µM [rising, single point] | 16.4 µM [falling, single point] |
| Cc1cc(C(=O)NNC(=O)c2ccccc2O)c(C)o1 | 18.1 | – | – |
| COc1cccc2sc(=NC(=O)CCS(=O)(=O)c3ccc(C)cc3)n(C)c12 | – | 2.59 µM [rising, full curve, poor fit] | – |
| O=C(O)c1cccc(Oc2ncnc3sc4c(c23)CCCC4)c1 | 40.2 | – | 14.6 µM [rising, single point] |
| C#CCOCCOCCOCCNc1nc(N2CCN(C(=O)Cn3cc(CCCN=C(N)N)nn3)CC2)nc(N2CCN(C(=O)[C@H](CCCCN)n3cc(CC(C)O)nn3)CC2)n1 (stereo partly drawn) | 28.8 | – | – |
| CCN(CC)CCn1c(SCC(=O)Nc2ccc3c(c2)CCC3)nc2ccccc2c1=O | -15.8 | 0.82 µM [falling, full curve, poor fit] | – |
| O=C(/C=C/c1cccs1)NC(=S)Nc1ccccc1 | -8.27 | – | – |
| CCc1ccc2oc(C(=O)Nc3nonc3C)c(C)c2c1 | -5.28 | – | – |
| COc1ccnc(NCc2ccc(Cl)cc2)c1C#N | – | 1.16 µM [rising, full curve, poor fit] | – |
| COCC(=O)N(Cc1cc2ccc(C)cc2[nH]c1=O)c1ccccc1C | -10.8 | 1.3 µM [rising, full curve, poor fit] | – |
| CC1SC2(NC1=O)C1CC3CC(C1)CC2C3 (stereo not drawn) | 21 | – | – |
| O=C(O)CN1C(=O)S/C(=C\c2cccnc2)C1=O | -1.63 | – | 0.00517 µM [falling, full curve, poor fit] |
| Cc1ncc([N+](=O)[O-])n1CCOC(=O)C12CC3CC(CC(C3)C1)C2 | -10.1 | 2.82 µM [falling, single point] | 2.51 µM [falling, partial curve] |

| Structure (SMILES) | cell number change [%] | AC50 [1] | AC50 [2] |
| --- | --- | --- | --- |
| O=C(NC1CCCCC1)c1ccc2[nH]c(=O)c(=O)[nH]c2c1 | 23.5 | 20.6 µM [rising, single point] | – |
| CC12CCC(C(=O)Nc3ccc(Cl)cc3)([C@H](Br)C1=O)C2(C)C (stereo partly drawn) | 17.9 | – | 5.8 µM [rising, single point] |
| CC(C)(C)CC(=O)Nc1nnc(SCC(=O)N2CCCCC2)s1 | 15.8 | – | 2.06 µM [rising, partial curve, poor fit] |
| N#CCOC(=O)c1cc(S(=O)(=O)N2CCCCC2)ccc1N1CCOCC1 | -10.2 | 0.651 µM [rising, partial curve] | – |
| C=CCn1c(-c2cccc(OC)c2)n[nH]c1=S | 41.9 | 1.84 µM [rising, partial curve] | 4.61 µM [rising, partial curve] |
| O=C1c2ccccc2-c2onc3ccc(N4CCCC4)c1c23 | -38.2 | – | 4.61 µM [falling, partial curve] |
| O=c1[nH]c(/C=C/c2ccc(Br)cc2)nc2ccccc12 | 17.1 | – | – |
| CC1CCCCC1NC(=O)CSc1nncn1N (stereo not drawn) | -27.2 | 18.4 µM [falling, single point] | – |
| COc1ccc(Cl)cc1NC(=O)c1cc(S(=O)(=O)N2CCCC2)cn1C | 5.19 | – | – |
| Cc1ccccc1SCC(=O)NNC(=O)c1ccccc1O | 47.1 | 13 µM [rising, partial curve, poor fit] | 14.6 µM [rising, partial curve] |
| CC(Sc1nc(NC(C)(C)C)nc(N(C)C)n1)C(=O)Nc1ccccc1 (stereo not drawn) | -58.1 | 9.2 µM [falling, partial curve] | 16.4 µM [falling, partial curve] |
| CC(NC(=O)C1CCCC1)C1CC2CCC1C2 (stereo not drawn) | 25.1 | 0.146 µM [rising, full curve, poor fit] | 0.164 µM [rising, full curve] |
| CC(=O)N1CCN(C(=O)CNC(=O)c2cccs2)CC1 | -1.09 | 0.92 µM [falling, partial curve] | 0.411 µM [falling, full curve] |
| N/C(=N\OC(=O)CCCOc1ccccc1)c1cccc([N+](=O)[O-])c1 | -13.3 | 7.31 µM [falling, partial curve] | – |
| COc1ccc(CC(=O)NNC(=O)CSc2nnc(Cc3ccc(OC)cc3)n2-c2ccccc2)cc1 | -15.9 | 0.13 µM [falling, full curve, poor fit] | 2.31 µM [falling, single point] |
| CCC(=O)N1CCc2cc(Br)cc(S(=O)(=O)NC3CCN(Cc4ccccc4)CC3)c21 | 14.8 | 6.51 µM [rising, single point] | – |
| Cc1ccc(C(=O)NC2CCN(C(=O)NCc3ccccc3)CC2)cc1 | 8.75 | 8.2 µM [rising, partial curve] | – |
| Cc1ccc(S(=O)(=O)N2CCC(C(=O)NNC(=O)C3CC3)CC2)cc1Cl | -12.4 | – | – |
| COCC(=O)N=Nc1c(O)[nH]c2ccccc12 | -2.73 | 2.59 µM [rising, partial curve, poor fit] | 3.26 µM [rising, single point] |

Record cards, as listed above. Order of values: cell number change [%] | AC50 [1] | AC50 [2]
Cc1ccc(CNC(=O)c2cccc(S(C)(=O)=O)c2)cc1 in the list: -10.8 | – | –
O=C(Nc1nnc(C2CC2)s1)c1ccc(Cl)nc1 in the list: 37.9 | – | 25.9 µM [rising, single point]
O=C(O)c1cccc(Oc2ncnc3sc4c(c23)CCCC4)c1 in the list: 40.2 | – | 14.6 µM [rising, single point]
Cc1ncc([N+](=O)[O-])n1CCOC(=O)C12CC3CC(CC(C3)C1)C2 in the list: -10.1 | 2.82 µM [falling, single point] | 2.51 µM [falling, partial curve]
